{"source": "paper doi:10.1101/2021.12.20.473554", "key": {"Flag-TSC22D4-ΔD2": {"molecular_target": "Flag-TSC22D4-ΔD2 (UniProt Q9EQN3)", "test": "co-IP"}, "Flag-TSC22D4-ΔTSC": {"molecular_target": "Flag-TSC22D4-ΔTSC (UniProt Q9EQN3)", "test": "co-IP"}}, "note": "No constants are given. Whether binding was seen depends on the method and setting. In cells and extracts the contact can be indirect. For some assays here: A result given as binding can be weak or reduced; the word gives no strength. Sequences can lack the tags named with a protein."}
{"binder": "full length myc-TSC22D4 (protein, UniProt Q9EQN3 1-387) MSGGKKKSSFQITSVTTDYEGPGSPGASDSPVPPALAGPPPRLPNGDPNPDPGGRGTPRNGSPPPGAPASRFRVVKLPQGLGEPYRRGRWTCVDVYERDLEPPSFGRLLEGIRGASGGTGGRSLDSRLELASLGISTPIPQPGLSQGPTSWLRPPPTSPGPQARSFTGGLGQLAGPGKAKVETPPLSASPPQQRPPGPGTGDSAQTLPSLRVEVESGGSAAATPPLSRRRDGAVRLRMELVAPAETGKVPPTDSRPNSPALYFDASLVHKSPDPFGAAAAQSLSLARSMLAISGHLDSDDDSGSGSLVGIDNKIEQAMDLVKSHLMFAVREEVEVLKEQIRDLAERNAALEQENGLLRALASPEQLAQLPSSGLPRLGPSAPNGPSI", "values": [{"measurement": "binding", "setting": "Flag-TSC22D4-ΔD2", "result": "binds"}, {"measurement": "binding", "setting": "Flag-TSC22D4-ΔTSC", "result": "no binding"}]}
